# Test results published in patent US20210054067A1 (ALETHIA BIOTHERAPEUTICS, published 2021).
# Results are given in words; binding and its absence hold for the method and conditions named. Some results given as binding are weak or reduced against the parent protein; the word gives no strength.
# T1: recombinant human KAAG1 (purified protein) (human) (UniProt Q9UBP8)
# T1 sequence: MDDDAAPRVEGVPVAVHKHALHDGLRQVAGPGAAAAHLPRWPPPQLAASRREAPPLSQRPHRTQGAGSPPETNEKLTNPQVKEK
# Legend:
# [1] = target: T1, recombinant human KAAG1 (purified protein) (human); experiment: ELISA, recombinant human KAAG1 coated on plate
# [2] = target: T1, recombinant human KAAG1 (purified protein) (human); experiment: ELISA: recombinant human KAAG1 coated on the plate, HRP anti-human antibody, OD450 (L1 series)
# [3] = target: T1, recombinant human KAAG1 (purified protein) (human); experiment: ELISA: recombinant human KAAG1 coated on the plate, HRP anti-human antibody, OD450 (L2 series)
# [4] = target: T1, recombinant human KAAG1 (purified protein) (human); experiment: SPR (ProteOn XPR36): purified 3A4 captured on anti-human IgG Fc surface, KAAG1 as analyte; bar chart of affinity constants
# [5] = target: T1, recombinant human KAAG1 (purified protein) (human); experiment: SPR (ProteOn XPR36): purified 3A4 captured on anti-human IgG Fc surface, KAAG1 as analyte; bar chart of association rate constants
# [6] = target: T1, recombinant human KAAG1 (purified protein) (human); experiment: SPR (ProteOn XPR36): purified 3A4 captured on anti-human IgG Fc surface, KAAG1 as analyte; bar chart of dissociation rate constants
# [7] = target: T1, recombinant human KAAG1 (purified protein) (human); experiment: screen of 96 recombinant monoclonal Fabs
# [8] = target: T1, recombinant human KAAG1 (purified protein) (human); experiment: SPR (ProteOn XPR36)
binding [1],binding [2],binding [3],binding [4],binding [5],binding [6],binding [7],binding [8],Binder
binds,binds,binds,binds,binds,binds,,,"3A4 chimeric anti-KAAG1 antibody (mouse-human chimeric IgG1) (antibody, V domains shown, also called chimeric 3A4; murine 3A4) VH: QIQLVQSGPEMVKPGASVKMSCKASGYTFTDDYMSWVKQSHGKSLEWIGDINPYNGDTNYNQKFKGKAILTVDKSSSTAYMQLNSLTSEDSAVYYCARDPGAMDYWGQGTSVTVSS VL: DVVMTQTPLSLAVSLGDQASISCRSSQSLLHSNGNTYLEWYLQKPGQSPKLLIHTVSNRFSGVPDRFSGSGSGTDFTLKISRVEAEDLGVYYCFQGSHVPLTFGAGTRLELKR"
binds,,binds,,,,,binds,"humanized 3A4 antibody Lh2Hh2 (antibody, human IgG1, kappa, V domains shown, human IgG1 kappa) VH: QIQLVQSGAEVKKPGASVKVSCKASGYTFTDDYMSWVRQAPGQGLEWMGDINPYNGDTNYNQKFKGRVTITADKSTSTAYMELSSLRSEDTAVYYCARDPGAMDYWGQGTLVTVSS VL: DVVMTQTPLSLPVTPGEPASISCRSSQSLLHSNGNTYLEWYLQKPGQSPKLLIYTVSNRFSGVPDRFSGSGSGTDFTLKISRVEAEDVGVYYCFQGSHVPLTFGQGTKLEIKR"
binds,,binds,,,,,binds,"humanized 3A4 antibody Lh2Hh3 (antibody, human IgG1, kappa, V domains shown, human IgG1 kappa) VH: QIQLVQSGAEVKKPGASVKVSCKASGYTFTDDYMSWVRQAPGQGLEWIGDINPYNGDTNYNQKFKGRATLTVDKSTSTAYMELSSLRSEDTAVYYCARDPGAMDYWGQGTLVTVSS VL: DVVMTQTPLSLPVTPGEPASISCRSSQSLLHSNGNTYLEWYLQKPGQSPKLLIYTVSNRFSGVPDRFSGSGSGTDFTLKISRVEAEDVGVYYCFQGSHVPLTFGQGTKLEIKR"
binds,,binds,,,,,binds,"humanized 3A4 antibody Lh2Hh1 (antibody, human IgG1, kappa, V domains shown, human IgG1 kappa) VH: QVQLVQSGAEVKKPGASVKVSCKASGYTFTDDYMSWVRQAPGQGLEWMGDINPYNGDTNYNQKFKGRVTITADTSTSTAYMELSSLRSEDTAVYYCARDPGAMDYWGQGTLVTVSS VL: DVVMTQTPLSLPVTPGEPASISCRSSQSLLHSNGNTYLEWYLQKPGQSPKLLIYTVSNRFSGVPDRFSGSGSGTDFTLKISRVEAEDVGVYYCFQGSHVPLTFGQGTKLEIKR"
binds,,binds,,,,,binds,"humanized 3A4 antibody Lh2Hh4 (antibody, human IgG1, kappa, V domains shown, human IgG1 kappa; 10 mouse framework residues retained; also called H4L2) VH: QIQLVQSGAEVKKPGASVKVSCKASGYTFTDDYMSWVKQAPGQGLEWIGDINPYNGDTNYNQKFKGKATLTVDKSTSTAYMELSSLRSEDTAVYYCARDPGAMDYWGQGTLVTVSS VL: DVVMTQTPLSLPVTPGEPASISCRSSQSLLHSNGNTYLEWYLQKPGQSPKLLIYTVSNRFSGVPDRFSGSGSGTDFTLKISRVEAEDVGVYYCFQGSHVPLTFGQGTKLEIKR"

# Continued, binder first:
Binder,binding [1],binding [2],binding [3],binding [4],binding [5],binding [6],binding [7],binding [8]
"3A4 recombinant monoclonal Fab (from Omniclonal AL0003 A2ZB, prepared from E. coli) (Fab, V domains shown) VH: QIQLVQSGPEMVKPGASVKMSCKASGYTFTDDYMSWVKQSHGKSLEWIGDINPYNGDTNYNQKFKGKAILTVDKSSSTAYMQLNSLTSEDSAVYYCARDPGAMDYWGQGTSVTVSS VL: DVVMTQTPLSLAVSLGDQASISCRSSQSLLHSNGNTYLEWYLQKPGQSPKLLIHTVSNRFSGVPDRFSGSGSGTDFTLKISRVEAEDLGVYYCFQGSHVPLTFGAGTRLELK",,,,,,,binds,
"humanized 3A4 antibody Lh1Hh2 (antibody, human IgG1, kappa, V domains shown, human IgG1 kappa) VH: QIQLVQSGAEVKKPGASVKVSCKASGYTFTDDYMSWVRQAPGQGLEWMGDINPYNGDTNYNQKFKGRVTITADKSTSTAYMELSSLRSEDTAVYYCARDPGAMDYWGQGTLVTVSS VL: DIVMTQTPLSLPVTPGEPASISCRSSQSLLHSNGNTYLEWYLQKPGQSPQLLIYTVSNRFSGVPDRFSGSGSGTDFTLKISRVEAEDVGVYYCFQGSHVPLTFGQGTKLEIKR",binds,binds,,,,,,binds
"humanized 3A4 antibody Lh1Hh1 (antibody, human IgG1, kappa, V domains shown, 100% humanized frameworks; human IgG1 kappa; also called H1L1) VH: QVQLVQSGAEVKKPGASVKVSCKASGYTFTDDYMSWVRQAPGQGLEWMGDINPYNGDTNYNQKFKGRVTITADTSTSTAYMELSSLRSEDTAVYYCARDPGAMDYWGQGTLVTVSS VL: DIVMTQTPLSLPVTPGEPASISCRSSQSLLHSNGNTYLEWYLQKPGQSPQLLIYTVSNRFSGVPDRFSGSGSGTDFTLKISRVEAEDVGVYYCFQGSHVPLTFGQGTKLEIKR",binds,binds,,,,,,binds
"humanized 3A4 antibody Lh1Hh4 (antibody, human IgG1, kappa, V domains shown, human IgG1 kappa) VH: QIQLVQSGAEVKKPGASVKVSCKASGYTFTDDYMSWVKQAPGQGLEWIGDINPYNGDTNYNQKFKGKATLTVDKSTSTAYMELSSLRSEDTAVYYCARDPGAMDYWGQGTLVTVSS VL: DIVMTQTPLSLPVTPGEPASISCRSSQSLLHSNGNTYLEWYLQKPGQSPQLLIYTVSNRFSGVPDRFSGSGSGTDFTLKISRVEAEDVGVYYCFQGSHVPLTFGQGTKLEIKR",binds,binds,,,,,,binds
"humanized 3A4 antibody Lh1Hh3 (antibody, human IgG1, kappa, V domains shown, human IgG1 kappa) VH: QIQLVQSGAEVKKPGASVKVSCKASGYTFTDDYMSWVRQAPGQGLEWIGDINPYNGDTNYNQKFKGRATLTVDKSTSTAYMELSSLRSEDTAVYYCARDPGAMDYWGQGTLVTVSS VL: DIVMTQTPLSLPVTPGEPASISCRSSQSLLHSNGNTYLEWYLQKPGQSPQLLIYTVSNRFSGVPDRFSGSGSGTDFTLKISRVEAEDVGVYYCFQGSHVPLTFGQGTKLEIKR",binds,binds,,,,,,binds
